According to US11780893B2, “Kv1.3 blockers” (Zealand Pharma A/S, priority 2019, dated 2023):
Some entries share one result that the patent states for a list of compounds. Bridge positions count the residues as written; N and C are the ends. Square brackets hold non-standard residues; d marks the D form. Peptide text beside a SMILES is read from it. Aad = N[C@@H](CCCC(=O)O)C(=O)O; Nle = CCCC[C@H](N)C(=O)O

The chains behind the UniProt entries cited, without tags or fusion partners.
UniProt P22001, whole entry: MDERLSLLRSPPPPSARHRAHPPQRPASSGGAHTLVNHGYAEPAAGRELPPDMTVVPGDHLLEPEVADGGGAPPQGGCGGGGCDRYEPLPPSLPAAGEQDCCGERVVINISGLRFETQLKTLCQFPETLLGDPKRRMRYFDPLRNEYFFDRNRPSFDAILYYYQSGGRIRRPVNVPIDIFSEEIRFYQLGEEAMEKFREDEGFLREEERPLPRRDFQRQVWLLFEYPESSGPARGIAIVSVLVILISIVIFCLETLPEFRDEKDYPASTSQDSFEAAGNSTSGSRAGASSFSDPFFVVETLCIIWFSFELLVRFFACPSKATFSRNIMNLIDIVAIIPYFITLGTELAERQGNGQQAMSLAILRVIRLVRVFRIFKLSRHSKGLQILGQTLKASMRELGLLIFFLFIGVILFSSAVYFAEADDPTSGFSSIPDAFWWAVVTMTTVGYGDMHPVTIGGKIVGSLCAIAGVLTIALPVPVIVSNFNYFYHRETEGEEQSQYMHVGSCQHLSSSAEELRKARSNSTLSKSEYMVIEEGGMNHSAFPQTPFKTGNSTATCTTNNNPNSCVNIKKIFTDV

Biological target: T1, human Kv1.3 voltage-gated K+ channel (Homo sapiens, UniProt P22001)
T1 construct: host or cells: CHO-DUKX
Type: cell-based

SMILES	IC50 [nM]
CCCC[C@H](NC(=O)[C@H](CC(=O)O)NC(=O)[C@H](CCCC)NC(=O)[C@@H](N)CO)C(=O)N[C@@H](CCCNC(=N)N)C(=O)N[C@H]1CSSC[C@@H]2NC(=O)[C@H](CCCCN)NC(=O)CNC(=O)[C@H](Cc3ccccc3)NC(=O)[C@H]([C@@H](C)CC)NC(=O)[C@H](CO)NC(=O)CNC(=O)[C@H]([C@@H](C)CC)NC(=O)[C@H](C)NC(=O)[C@H](C(C)C)NC(=O)[C@H](CC(C)C)NC(=O)[C@@H]3CSSC[C@@H](C(=O)N[C@@H](Cc4ccc(O)cc4)C(=O)N4CCC[C@H]4C(=O)N[C@@H](CCCNC(=N)N)C(N)=O)NC(=O)[C@H](CCCCN)NC(=O)[C@H](CSSC[C@H](NC(=O)[C@H](CCC(=O)O)NC(=O)[C@H](C(C)C)NC(=O)[C@H](CO)NC(=O)[C@H](C)NC(=O)[C@H](CO)NC1=O)C(=O)N[C@@H](CCCCN)C(=O)N[C@@H](CCC(N)=O)C(=O)N[C@@H](CCCCN)C(=O)N3)NC(=O)[C@H](CCCCN)NC(=O)[C@H](CCCCN)NC(=O)[C@H](CC(N)=O)NC(=O)[C@H](CCSC)NC2=O [Compound 78] (H-S[Nle]D[Nle]RCSASVECKQKCLVAIGSIFGKCMNKKCKCYPR-NH2; disulfide 6-27, 12-32, 16-34)	≤ 0.15
CCCC[C@H](NC(=O)[C@H](CC(=O)O)NC(=O)[C@H](CCCC)NC(=O)[C@@H](N)CO)C(=O)N[C@@H](CCCNC(=N)N)C(=O)N[C@H]1CSSC[C@@H]2NC(=O)[C@H](CCCCN)NC(=O)CNC(=O)[C@H](Cc3ccccc3)NC(=O)[C@H]([C@@H](C)CC)NC(=O)[C@H](CO)NC(=O)CNC(=O)[C@H]([C@@H](C)CC)NC(=O)[C@H](C)NC(=O)[C@H](CCCCN)NC(=O)[C@H](CC(C)C)NC(=O)[C@@H]3CSSC[C@@H](C(=O)N[C@@H](Cc4ccc(O)cc4)C(=O)N4CCC[C@H]4C(=O)N[C@@H](CCCNC(=N)N)C(N)=O)NC(=O)[C@H](CCCCN)NC(=O)[C@H](CSSC[C@H](NC(=O)[C@H](CCC(=O)O)NC(=O)[C@H](C(C)C)NC(=O)[C@H](CO)NC(=O)[C@H](C)NC(=O)[C@H](CO)NC1=O)C(=O)N[C@@H](C)C(=O)N[C@@H](CCC(N)=O)C(=O)N[C@@H](CO)C(=O)N3)NC(=O)[C@H](CCCCN)NC(=O)[C@H](CCCCN)NC(=O)[C@H](CC(N)=O)NC(=O)[C@H](CCSC)NC2=O [Compound 79] (H-S[Nle]D[Nle]RCSASVECAQSCLKAIGSIFGKCMNKKCKCYPR-NH2; disulfide 6-27, 12-32, 16-34)	≤ 0.15
CCCC[C@H](NC(=O)[C@H](CC(=O)O)NC(=O)[C@H](CCCC)NC(=O)[C@@H](N)CO)C(=O)N[C@@H](CCCNC(=N)N)C(=O)N[C@H]1CSSC[C@@H]2NC(=O)[C@H](CCCCN)NC(=O)CNC(=O)[C@H](Cc3ccccc3)NC(=O)[C@H]([C@@H](C)CC)NC(=O)[C@H](CO)NC(=O)CNC(=O)[C@H]([C@@H](C)CC)NC(=O)[C@H](C)NC(=O)[C@H](C)NC(=O)[C@H](CC(C)C)NC(=O)[C@@H]3CSSC[C@@H](C(=O)N[C@@H](Cc4ccc(O)cc4)C(=O)N4CCC[C@H]4C(=O)N[C@@H](CCCNC(=N)N)C(N)=O)NC(=O)[C@H](CCCCN)NC(=O)[C@H](CSSC[C@H](NC(=O)[C@H](CCC(=O)O)NC(=O)[C@H](C(C)C)NC(=O)[C@H](CO)NC(=O)[C@H](C)NC(=O)[C@H](CO)NC1=O)C(=O)N[C@@H](C)C(=O)N[C@@H](CCC(N)=O)C(=O)N[C@@H](CCCCN)C(=O)N3)NC(=O)[C@H](CCCCN)NC(=O)[C@H](CCCCN)NC(=O)[C@H](CC(N)=O)NC(=O)[C@H](CCSC)NC2=O [Compound 80] (H-S[Nle]D[Nle]RCSASVECAQKCLAAIGSIFGKCMNKKCKCYPR-NH2; disulfide 6-27, 12-32, 16-34)	≤ 0.15
CCCC[C@H](NC(=O)[C@H](CC(=O)O)NC(=O)[C@H](CCCC)NC(=O)[C@@H](N)CO)C(=O)N[C@@H](CCCNC(=N)N)C(=O)N[C@H]1CSSC[C@@H]2NC(=O)[C@H](CCCCN)NC(=O)CNC(=O)[C@H](Cc3ccccc3)NC(=O)[C@H]([C@@H](C)CC)NC(=O)[C@H](CO)NC(=O)CNC(=O)[C@H]([C@@H](C)CC)NC(=O)[C@H](C)NC(=O)[C@H](C)NC(=O)[C@H](CC(C)C)NC(=O)[C@@H]3CSSC[C@@H](C(=O)N[C@@H](Cc4ccc(O)cc4)C(=O)N4CCC[C@H]4C(=O)N[C@@H](CCCNC(=N)N)C(N)=O)NC(=O)[C@H](CCCCN)NC(=O)[C@H](CSSC[C@H](NC(=O)[C@H](CCC(=O)O)NC(=O)[C@H](C(C)C)NC(=O)[C@H](CO)NC(=O)[C@H](C)NC(=O)[C@H](CO)NC1=O)C(=O)N[C@@H](C)C(=O)N[C@@H](CCC(N)=O)C(=O)N[C@@H](CC(C)C)C(=O)N3)NC(=O)[C@H](CCCCN)NC(=O)[C@H](CCCCN)NC(=O)[C@H](CC(N)=O)NC(=O)[C@H](CCSC)NC2=O [Compound 81] (H-S[Nle]D[Nle]RCSASVECAQLCLAAIGSIFGKCMNKKCKCYPR-NH2; disulfide 6-27, 12-32, 16-34)	≤ 0.3
CCCC[C@@H]1NC(=O)[C@@H]2CSSC[C@H](NC(=O)[C@H](CCCNC(=N)N)NC(=O)[C@H](CCCC)NC(=O)[C@H](CC(=O)O)NC(=O)[C@H](CCCC)NC(=O)[C@@H](N)CO)C(=O)N[C@@H](CO)C(=O)N[C@@H](C)C(=O)N[C@@H](CO)C(=O)N[C@@H](C(C)C)C(=O)N[C@@H](CCC(=O)O)C(=O)N[C@H]3CSSC[C@H](NC(=O)[C@H](CCCCN)NC(=O)[C@H](CCCCN)NC(=O)[C@H](CC(N)=O)NC1=O)C(=O)N[C@@H](CCCCN)C(=O)N[C@H](C(=O)N[C@@H](Cc1ccc(O)cc1)C(=O)N1CCC[C@H]1C(=O)N[C@@H](CCCNC(=N)N)C(N)=O)CSSC[C@H](NC(=O)[C@H](CCCCN)NC(=O)[C@H](CCC(=O)O)NC(=O)[C@H](CCCCN)NC3=O)C(=O)N[C@@H](CC(C)C)C(=O)N[C@@H](CCC(N)=O)C(=O)N[C@@H](C)C(=O)N[C@@H]([C@@H](C)CC)C(=O)NCC(=O)N[C@@H](CO)C(=O)N[C@@H]([C@@H](C)CC)C(=O)N[C@@H](Cc1ccccc1)C(=O)NCC(=O)N[C@@H](CCCCN)C(=O)N2 [Compound 84] (H-S[Nle]D[Nle]RCSASVECKEKCLQAIGSIFGKC[Nle]NKKCKCYPR-NH2; disulfide 6-27, 12-32, 16-34)	≤ 0.15
CCCC[C@H](NC(=O)[C@@H]1CCCN1)C(=O)N[C@@H](CC(=O)O)C(=O)N[C@@H](CCCC)C(=O)N[C@@H](CCCNC(=N)N)C(=O)N[C@H]1CSSC[C@@H]2NC(=O)[C@H](CCCCN)NC(=O)CNC(=O)[C@H](Cc3ccccc3)NC(=O)[C@H]([C@@H](C)CC)NC(=O)[C@H](CO)NC(=O)CNC(=O)[C@H]([C@@H](C)CC)NC(=O)[C@H](C)NC(=O)[C@H](CCCC(N)=O)NC(=O)[C@H](CC(C)C)NC(=O)[C@@H]3CSSC[C@@H](C(=O)N[C@@H](Cc4ccc(O)cc4)C(=O)N4CCC[C@H]4C(=O)N[C@@H](CCCNC(=N)N)C(N)=O)NC(=O)[C@H](CCCCN)NC(=O)[C@H](CSSC[C@H](NC(=O)[C@H](CCC(=O)O)NC(=O)[C@H](C(C)C)NC(=O)[C@H](CO)NC(=O)[C@H](C)NC(=O)[C@H](CO)NC1=O)C(=O)N[C@@H](CCCCN)C(=O)N[C@@H](CCC(=O)O)C(=O)N[C@@H](CCCCN)C(=O)N3)NC(=O)[C@H](CCCCN)NC(=O)[C@H](CCCCN)NC(=O)[C@H](CC(N)=O)NC(=O)[C@H](CCCC)NC2=O [Compound 85] (H-P[Nle]D[Nle]RCSASVECKEKCL[Aad](NH2)AIGSIFGKC[Nle]NKKCKCYPR-NH2; disulfide 6-27, 12-32, 16-34)	≤ 0.15
CCCC[C@@H]1NC(=O)[C@@H]2CSSC[C@H](N)C(=O)N[C@@H](CO)C(=O)N[C@@H](C)C(=O)N[C@@H](CO)C(=O)N[C@@H](C(C)C)C(=O)N[C@@H](CCC(=O)O)C(=O)N[C@H]3CSSC[C@H](NC(=O)[C@H](CCCCN)NC(=O)[C@H](CCCCN)NC(=O)[C@H](CC(N)=O)NC1=O)C(=O)N[C@@H](CCCCN)C(=O)N[C@H]1CSSC[C@H](NC(=O)[C@H](CCCCN)NC(=O)[C@H](CCC(N)=O)NC(=O)[C@H](CCCCN)NC3=O)C(=O)N[C@@H](CC(C)C)C(=O)N[C@@H](CCCCN)C(=O)N[C@@H](C)C(=O)N[C@@H]([C@@H](C)CC)C(=O)NCC(=O)N[C@@H](CSSC[C@@H](C(N)=O)NC(=O)[C@@H]3CCCN3C(=O)[C@H](Cc3ccc(O)cc3)NC1=O)C(=O)N[C@@H]([C@@H](C)CC)C(=O)N[C@@H](Cc1ccccc1)C(=O)NCC(=O)N[C@@H](CCCCN)C(=O)N2 [Compound 86] (H-CSASVECKQKCLKAIGCIFGKC[Nle]NKKCKCYPC-NH2; disulfide 1-22, 7-27, 11-29, 17-32)	≤ 0.3
CCCC[C@@H]1NC(=O)[C@@H]2CSSC[C@H](NC(=O)[C@H](CCCNC(=N)N)NC(=O)[C@H](CCCC)NC(=O)[C@H](CC(=O)O)NC(=O)[C@H](CCCC)NC(=O)[C@@H](N)CO)C(=O)N[C@@H](CO)C(=O)N[C@@H](C)C(=O)N[C@@H](CO)C(=O)N[C@@H](C(C)C)C(=O)N[C@@H](CCC(=O)O)C(=O)N[C@H]3CSSC[C@H](NC(=O)[C@H](CCCCN)NC(=O)[C@H](CCCCN)NC(=O)[C@H](CC(N)=O)NC1=O)C(=O)N[C@@H](CCCCN)C(=O)N[C@H]1CSSC[C@H](NC(=O)[C@H](CCCCN)NC(=O)[C@H](CCC(N)=O)NC(=O)[C@H](CCCCN)NC3=O)C(=O)N[C@@H](CC(C)C)C(=O)N[C@@H](C)C(=O)N[C@@H](C)C(=O)N[C@@H]([C@@H](C)CC)C(=O)NCC(=O)N[C@@H](CSSC[C@@H](C(N)=O)NC(=O)[C@@H]3CCCN3C(=O)[C@H](Cc3ccc(O)cc3)NC1=O)C(=O)N[C@@H]([C@@H](C)CC)C(=O)N[C@@H](Cc1ccccc1)C(=O)NCC(=O)N[C@@H](CCCCN)C(=O)N2 [Compound 87] (H-S[Nle]D[Nle]RCSASVECKQKCLAAIGCIFGKC[Nle]NKKCKCYPC-NH2; disulfide 6-27, 12-32, 16-34, 22-37)	≤ 0.15
CCCC[C@H](NC(=O)[C@@H]1CCCN1)C(=O)N[C@@H](CC(=O)O)C(=O)N[C@@H](CCCC)C(=O)N[C@@H](CCCNC(=N)N)C(=O)N[C@H]1CSSC[C@@H]2NC(=O)[C@H](CCCCN)NC(=O)CNC(=O)[C@H](Cc3ccccc3)NC(=O)[C@H]([C@@H](C)CC)NC(=O)[C@@H]3CSSC[C@@H](C(=O)O)NC(=O)[C@@H]4CCCN4C(=O)[C@H](Cc4ccc(O)cc4)NC(=O)[C@@H]4CSSC[C@H](NC(=O)[C@H](CCCCN)NC(=O)[C@H](CCC(N)=O)NC(=O)[C@H](CCCCN)NC(=O)[C@H](CSSC[C@H](NC(=O)[C@H](CCCCN)NC(=O)[C@H](CCCCN)NC(=O)[C@H](CC(N)=O)NC(=O)[C@H](CCCC)NC2=O)C(=O)N[C@@H](CCCCN)C(=O)N4)NC(=O)[C@H](CCC(=O)O)NC(=O)[C@H](C(C)C)NC(=O)[C@H](CO)NC(=O)[C@H](C)NC(=O)[C@H](CO)NC1=O)C(=O)N[C@@H](CC(C)C)C(=O)N[C@@H](CCCCN)C(=O)N[C@@H](C)C(=O)N[C@@H]([C@@H](C)CC)C(=O)NCC(=O)N3 [Compound 88] (H-P[Nle]D[Nle]RCSASVECKQKCLKAIGCIFGKC[Nle]NKKCKCYPC-OH; disulfide 6-27, 12-32, 16-34, 22-37)	≤ 0.3
